Measured values published in publication PMC10266688 (PLOS ONE, 2023).
“And” between values parts separate entries of the source, which are not always exact repeats. Equal entries are not always repeated. This continues a long series; more values of the same kind are listed elsewhere.

Experiment: Single administration dose escalation study (MTD, body weight, clinical observations), female CD1 mice
Format: in vivo
Conditions: PO 200 mg/kg single dose

**Q.** What does the source list for N#Cc1ccc(/C=C2/C(=O)/C(=C/c3ccc(C#N)cc3)C23CCNCC3)cc1 [Up284]?
**A.** Body weight (day 0, individual mice): 24.2 g and 26.3 g and 23.6 g; Body weight (day 1, individual mice): 24.9 g and 25.8 g and 24.0 g; Body weight (day 2, individual mice): 25.7 g and 25.5 g and 24.3 g; Body weight (day 3, individual mice): 25.6 g and 25.1 g and 24.5 g; Body weight (day 4, individual mice): 25.1 g and 26.3 g and 24.8 g; Body weight (day 5, individual mice): 25.1 g and 26.2 g and 24.7 g; Body weight (day 6, individual mice): 25.8 g and 25.7 g and 25.4 g; Body weight (day 7, individual mice): 25.0 g
